Paper PMC7862700
Only a part is listed here, and it is no random draw. At the low end of the ranking the order means little.

biological target: SPI1 (UniProt P17947); assay: DAPPL (digital affinity profiling via proximity ligation, sequencing); conditions: 10 mM Tris-HCl pH 7.5, 50 mM NaCl, 1 mM DTT, 4% glycerol, room temperature, 30 min; GST-TFs on glutathione beads, 16-mer random dsDNA library, 0.1% …; high values mean tight binding; double strand, one strand shown; scale: fold enrichment (6-mer frequency, TF over GST control)

Sequence | binding signal
CACGAA | 1.06
TTGCGT | 1.11
TACTGC | 1.24
CCCTCG | 1.23
ATGGCT | 1.28
GTACTT | 1.94
TCTGTT | 1.43
TACACG | 1.07
TTTCGA | 1.35
CTCGTG | 0.971
CCATAA | 1.17
CTGTAA | 1.11
ATAAAC | 1.14
ACGGCC | 1.09
GAACCC | 1.16
TTGCGG | 1.61
GTGCTT | 1.33
ACTGCT | 1.46

Quoted at random: two entries already listed.
Sequence | binding signal
CACGAA | 1.06
TACACG | 1.07

Later entries

Sequence | binding signal
TGAAAC | 1.28
CCTATG | 1.21
CCTCTA | 1.33
TCGAAT | 0.954
CCCCGG | 1.16
CCTATT | 1.55
TATGGA | 1.07
TTGCCG | 1.12
CTGCTA | 1.53
ATCGAA | 1.13
CCTAGA | 0.976
AGCCCC | 1.02
GATTCC | 1.14
TGATGG | 1.28
TGTGTT | 0.94
CTTGTG | 1.46
ATAACT | 1.22
